# At least one structure is not confirmed: it was looked up by name or label, or the drawing left a doubt. Some entries repeat one wording, which the source may state once for all of them.
# Test system: CD34+ brown adipocyte progenitor cells
# Assay: Multiplexed TaqMan real-time PCR of UCP1 and PPARγ2 mRNA (normalized to cyclophilin A) to quantify differentiation of CD34+ cells into brown adipocytes
# Type: cell-based, human
# Description: A robust method, previously disclosed, was used for detection of CD34+ cell differentiation into brown adipocytes by simultaneously quantifying mRNA species corresponding to the brown adipocyte marker UCP1, the adipocyte marker PPARγ2, and the “housekeeping” gene cyclophilin A which was used as the internal control.
# This method permits analysis of a large number of samples to identify agents that enhance the differentiation of CD34+ cells into brown adipocytes. When differentiated into brown adipocytes, CD34+ cells express much higher levels of UCP1 and PPARγ2 mRNA for a given level of cyclophilin A. UCP1 and PPARγ2 mRNA levels normalized to cyclophilin A mRNA levels give an indication of the level of differentiation of the CD34+ cells into brown adipocytes, independent of the total number of cells in the sample.
# Quantification of UCP1, PPARγ2 and cyclophilin A mRNA by multiplexed TaqMan real-time PCR was thus used to quantify differentiation of the CD34+ cells into brown adipocytes.
# UCP1 is the key protein in brown adipocytes responsible for uncoupled respiration and is also highly specific for brown adipocyte differentiation. […] We used a real-time semi-quantitative RT PCR-based assay for detection of UCP1 expression, in order to screen for brown adipocyte recruiters. […]
# Cells were seeded at 10,000 per cm^2 (48-well tissue culture, Chemglass #CLS-3500-048), cultured until confluency (1-4 days) at 37° C. in Endothelial cell growth medium-2 (EGM2) (BulletKit growth medium, Lonza #CC-3162) and until differentiation (6-12 more days). […] Adipocyte scores were determined by light microscopy and defined as the number of cells, on a per well basis, that contain multilocular lipid droplets, at the end of the differentiation of the cells, approximately 6 to 12 days following the end of compound treatment and switch into MDM media. […]
# Cyclophilin A was used as a control to account for any variations due to the efficiency of reverse transcription. Arbitrary units were determined by normalizing target mRNA levels to cyclophilin A mRNA levels (based on Cts).
smiles,measurement,value
CN(CCOc1ccc(CC2SC(=O)NC2=O)cc1)c1ccccn1 (stereo not drawn) [rosiglitazone],recruitment of brown adipocytes,robustly increase the recruitment of brown adipocytes
same,response of the UCP1/PPARγ2 RT-PCR assay to positive controls,appropriate dose-responsive behavior
CCc1ccc(CCOc2ccc(CC3SC(=O)NC3=O)cc2)nc1 (stereo not drawn) [pioglitazone],response of the UCP1/PPARγ2 RT-PCR assay to positive controls,appropriate dose-responsive behavior
